Data source: PubChem BioAssay AID1259308 (NCATS, 2017)
The whole screen tested about 59,000 reagents; this is an unselected part. In the full data, about 1,510 (2.6%) were called active. 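Calls use total luciferase alone and ignore viability, so some active siRNAs may act by altering cell number.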 Reagents against one gene are numbered here. Further read-outs or replicates are left out here.

Assay: 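Genes whose loss raises luciferase production in HEK293 cells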 (primary screen)
Cell system: human HEK293 embryonic kidney cells stably expressing firefly luciferase (HEK-CMV-Luc2-Hygro)
Reagents: single siRNA against human genes, 0.8 pmol siRNA per well
Time to read-out: 72 h
Detection: 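Reporter luminescence and viable-cell signal on separate replicate plates, given as percent of non-targeting control and median/MAD z-scores, plus per-cell luciferase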
Direction: total luciferase, z-score: higher = more reporter protein produced
Rule for the call: 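An siRNA counts as active if its total luciferase robust z-score exceeds 3; genes with two or more such siRNAs out of three were retested with fresh siRNAs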
Calls: active = raised luciferase; inactive = no rise

total luciferase, z-score, by target gene and reagent
HLA-DQB1 (GeneID 3119): #1 -0.0246 inactive; #2 -0.117 inactive; #3 2.02 inactive
TCF23 (GeneID 150921): #1 1.07 inactive; #2 -0.00939 inactive; #3 -0.00196 inactive
ARMH1 (GeneID 339541): #1 -1.59 inactive; #2 1.47 inactive; #3 0.478 inactive
KIR2DL1 (GeneID 3802): #1 1.6 inactive; #2 1.63 inactive; #3 0.278 inactive
SMAD9 (GeneID 4093): #1 -1.3 inactive; #2 -0.992 inactive; #3 -1.15 inactive
GLDC (GeneID 2731): #1 0.231 inactive; #2 -0.705 inactive; #3 0.0301 inactive
HS6ST1 (GeneID 9394): #1 0.829 inactive; #2 1.26 inactive; #3 0.339 inactive
WRNIP1 (GeneID 56897): #1 0.0797 inactive; #2 -0.34 inactive; #3 -0.554 inactive
MAP6 (GeneID 4135): #1 0.893 inactive; #2 1.33 inactive; #3 -0.0782 inactive
AMOT (GeneID 154796): #1 -1.42 inactive; #2 1.12 inactive; #3 3.68 active
MARCHF9 (GeneID 92979): #1 0.417 inactive; #2 0.0101 inactive; #3 -0.519 inactive
PRDM13 (GeneID 59336): #1 -0.758 inactive; #2 -0.36 inactive; #3 1.21 inactive
MAGEC1 (GeneID 9947): #1 -1.98 inactive; #2 -0.55 inactive; #3 0.284 inactive
ATP13A3 (GeneID 79572): #1 -0.637 inactive; #2 0.939 inactive; #3 0.389 inactive
ERP27 (GeneID 121506): #1 1.88 inactive; #2 2.1 inactive; #3 0.0157 inactive
ITK (GeneID 3702): #1 -0.182 inactive; #2 -0.791 inactive; #3 -0.193 inactive
SEPTIN14 (GeneID 346288): #1 0.882 inactive; #2 0.651 inactive; #3 0.5 inactive
CSE1L (GeneID 1434): #1 2.12 inactive; #2 2.63 inactive; #3 2.11 inactive
MTHFD1L (GeneID 25902): #1 -0.958 inactive; #2 -0.103 inactive; #3 1.75 inactive
NGDN (GeneID 25983): #1 0.498 inactive; #2 -0.853 inactive; #3 -1.68 inactive
ITLN1 (GeneID 55600): #1 0.112 inactive; #2 1.63 inactive; #3 -0.252 inactive
GNL3 (GeneID 26354): #1 -1.15 inactive; #2 -0.122 inactive; #3 -1.55 inactive
MAP2K4 (GeneID 6416): #1 1.83 inactive; #2 -0.374 inactive; #3 -2.53 inactive
CDRT15L2 (GeneID 256223): #1 2.27 inactive; #2 0.0058 inactive; #3 -0.277 inactive
FBXO9 (GeneID 26268): #1 1.07 inactive; #2 -0.995 inactive; #3 0.677 inactive
